Source: the supplement of paper PMC7877785
± gives the uncertainty stated by the source. The uncertainty is large for many entries.

Assay: self-splicing fitness, log relative to wild type (ln ratio); higher = more splicing; Tetrahymena group I intron in knt gene, E. coli kanamycin selection, DiMSum; sequences stand for … in CUCUCU…GGAGGGAAAAGUUAUCAGGCAUGCACCUGGUAGCUAGUCUUUAAACCAAUAGAUUGCAUCGGUUUAAAAGGCAAGACCGUCAAAUUGCGGGAAAGGGGUCAACAGCCGUUCAGUACCAAGUCUCAGGGGAAACUUUGAGAUGGCCUUGCAAAGGGUAUGGUAAUAAGCUGACGGACAUGGUCCUAACCACGCAGCCAAGUCCUAAGUCAACAGAUCUUCUGUUGAUAUGGAUGCAGUUCACAGACUAAAUGUCGGUCGGGGAAGAUGUAUUCUUCUCAUAAGAUAUAGUCGGACCUCUCCUUAAUGGGAGCUAGCGGAUGAAGUGAUGCAACACUGGAGCCGCUGGGAACUAAUUUGUAUGCGAAAGUAUAUUGAUUAGUUUUGGAGUACUCGUGGUCG
Summary of the method: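 The eight P1ex-region nucleotides of an intron in the knt kanamycin-resistance gene on pET-22b(+) were all randomised and the library put into E. coli BL21(DE3). Six replicate transformations were grown overnight at 37°C or 30°C on LB agar with or without 25 μg/mL kanamycin, together with 100 μg/mL carbenicillin, 50 μM IPTG and 0.2% rhamnose. Colonies were pooled and amplicon-sequenced on an Illumina HiSeq 2500. Fitness from DiMSum is the error-weighted combination of wild-type-normalised replicate fold changes, kanamycin over none.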

Sequence | self-splicing fitness (ln) (37 °C) | self-splicing fitness (ln) (30 °C)
UACGAGCAAUAUUACGCUCU | -2.99 ± 0.61 | 
UGGUAGCAAUAUUACGGACU | 0.844 ± 0.2 | -0.67 ± 0.17
GUGAAGCAAUAUUACGAGGU | -1.36 ± 0.26 | -1.83 ± 0.29
CGCGAGCAAUAUUACGCUCG | -1.19 ± 0.73 | -3.48 ± 0.54
AGAUAGCAAUAUUACGCAGA | -2.32 ± 0.2 | -2.95 ± 0.18
GGGAAGCAAUAUUACGAAAG |  | -2.23 ± 0.51
GAGGAGCAAUAUUACGCCGC | -3.39 ± 1 | -3.42 ± 1
GAUGAGCAAUAUUACGUCGG |  | -4.54 ± 0.51
UAGCAGCAAUAUUACGAGCG | 0.235 ± 0.098 | 0.035 ± 0.078
CAUGAGCAAUAUUACGCUAU | -1.99 ± 0.21 | -3.46 ± 0.3
GCAGAGCAAUAUUACGCCGC | -1.71 ± 0.62 | 
UAGGAGCAAUAUUACGCCCA | -0.0369 ± 0.5 | -1.8 ± 0.9
GGUUAGCAAUAUUACGAAGG | -1.94 ± 0.55 | -2.66 ± 0.78
CAUAAGCAAUAUUACGAGAC | -2.82 ± 0.53 | 
GUGGAGCAAUAUUACGCGAC | -0.98 ± 0.77 | 
AAGCAGCAAUAUUACGCUGU |  | -5.57 ± 0.71
UGAAAGCAAUAUUACGUCUG | 0.773 ± 0.09 | -0.102 ± 0.071
GGGUAGCAAUAUUACGUGCC | -1.39 ± 1.2 | 
ACCGAGCAAUAUUACGCCCC | -1.43 ± 0.61 | -2.86 ± 0.64
ACGUAGCAAUAUUACGGCAC |  | -3.12 ± 0.54
CUGGAGCAAUAUUACGCCAU |  | -2.66 ± 0.76
UCUGAGCAAUAUUACGCCCU |  | -3.91 ± 0.75
CUCUAGCAAUAUUACGCGGA | -1.9 ± 0.34 | -3.1 ± 0.4
AGGGAGCAAUAUUACGCACC | -1.2 ± 0.65 | -2.71 ± 0.65

Sequence | self-splicing fitness (ln) (37 °C) | self-splicing fitness (ln) (30 °C)
UAGGAGCAAUAUUACGCAGU |  | -4.62 ± 0.52
GCUGAGCAAUAUUACGCUGA | -1.15 ± 0.17 | -2.99 ± 0.2
UUUCAGCAAUAUUACGAAAC |  | -4.41 ± 0.59
UCUUAGCAAUAUUACGAUGC | -2.19 ± 0.56 | 
UCUUAGCAAUAUUACGGCUC | -2.2 ± 1.1 | -3.3 ± 0.6
CUGAAGCAAUAUUACGAAAC | -3.16 ± 0.53 | 
GUGGAGCAAUAUUACGCAAC | -1.39 ± 1.2 | -2.53 ± 0.77
GAGAAGCAAUAUUACGCCCG | 0.00226 ± 0.24 | -2.15 ± 0.19
CAGUAGCAAUAUUACGGACC | -2.37 ± 0.63 | 
UUAUAGCAAUAUUACGACAC | -0.3 ± 0.6 | -1.83 ± 0.57
CAUGAGCAAUAUUACGCCUC |  | -2.13 ± 0.65
UGGGAGCAAUAUUACGAAUC | -1.79 ± 0.69 | -3.52 ± 1.1
CGAGAGCAAUAUUACGAAUG | -2.03 ± 0.21 | -2.96 ± 0.2
CCUGAGCAAUAUUACGCCUA | -2.64 ± 0.61 | 
GAAGAGCAAUAUUACGCAGG | -2.97 ± 0.61 | 
AGCAAGCAAUAUUACGCGCU |  | -4.19 ± 0.52
CGUGAGCAAUAUUACGAAUA | -2.87 ± 0.32 | -2.8 ± 0.28
GGGAAGCAAUAUUACGCGGC | -1.2 ± 0.66 | 
CCUAAGCAAUAUUACGGAAA |  | -3.81 ± 0.53
UAAGAGCAAUAUUACGUUCC |  | -4.63 ± 1
UGGUAGCAAUAUUACGCGGU |  | -3.79 ± 0.59
CUUGAGCAAUAUUACGAAUA | -2.5 ± 0.55 | 
GCCUAGCAAUAUUACGCCUA |  | -1.3 ± 0.57
ACAGAGCAAUAUUACGUUUC |  | -4.36 ± 0.61

Sequence | self-splicing fitness (ln) (37 °C) | self-splicing fitness (ln) (30 °C)
CGUUAGCAAUAUUACGAAGC | -2.89 ± 1.1 | 
UUAUAGCAAUAUUACGGUGC | -2.37 ± 0.54 | -3.01 ± 0.84
UAACAGCAAUAUUACGAGGC | -1.97 ± 0.18 | -3.62 ± 0.2
CUAAAGCAAUAUUACGUCAU | -2.78 ± 0.23 | -4.85 ± 0.31
GUAUAGCAAUAUUACGAGCU | -1.61 ± 0.3 | -2.42 ± 0.27
GAGGAGCAAUAUUACGCACC | -1.62 ± 1.1 | 
CCAGAGCAAUAUUACGGACC | -1.17 ± 0.74 | -2.73 ± 0.55
GGCCAGCAAUAUUACGAUGG | -2.67 ± 0.33 | -4.28 ± 0.33
GAGGAGCAAUAUUACGCUCU | -1.73 ± 0.47 | -2.18 ± 0.42
UAAGAGCAAUAUUACGCACC |  | -3.21 ± 1.1
UCCUAGCAAUAUUACGGUGU | -0.222 ± 0.097 | -1.71 ± 0.067
GGGAAGCAAUAUUACGGCCC | -2.32 ± 0.51 | -3.07 ± 0.64
AUUAAGCAAUAUUACGCUCA | -0.258 ± 0.091 | -0.292 ± 0.068
UAAGAGCAAUAUUACGUGAU | -2.43 ± 0.35 | -4.21 ± 0.34
UUUUAGCAAUAUUACGUACC | -0.786 ± 0.64 | 
AGAUAGCAAUAUUACGGAAC |  | -3.87 ± 0.6
GGUAAGCAAUAUUACGCACU |  | -3.21 ± 1.1
AUGGAGCAAUAUUACGCUAU | -2.4 ± 0.22 | -3.89 ± 0.15
CGCAAGCAAUAUUACGCUUG | -1.87 ± 0.21 | -2.74 ± 0.2
ACUCAGCAAUAUUACGCCAC | -3.13 ± 0.6 | 
ACACAGCAAUAUUACGCUUC |  | -5.39 ± 0.58
CAUAAGCAAUAUUACGCUAC |  | -4.24 ± 0.73
UGGCAGCAAUAUUACGACAC |  | -2.84 ± 0.67
GAGUAGCAAUAUUACGCUAU | -3.8 ± 0.73 | 

Sequence | self-splicing fitness (ln) (37 °C) | self-splicing fitness (ln) (30 °C)
CUCGAGCAAUAUUACGCGAC |  | -1.96 ± 1.2
GGUGAGCAAUAUUACGGGGA |  | -4.4 ± 1
UGGAAGCAAUAUUACGAAUU |  | -3.34 ± 0.64
AGUGAGCAAUAUUACGCUCA |  | -3.31 ± 0.74
ACGGAGCAAUAUUACGAUGA | -2.57 ± 0.19 | -2.56 ± 0.12
CUGCAGCAAUAUUACGGCGU |  | -3.63 ± 0.52
UCCUAGCAAUAUUACGCGGC | -1.69 ± 0.81 | 
UGGAAGCAAUAUUACGCUGA |  | -3.72 ± 1
GUAGAGCAAUAUUACGCCGC | -1.38 ± 0.84 | -2.44 ± 1.1
UCGUAGCAAUAUUACGCUCC | -2.39 ± 0.63 | 
GAACAGCAAUAUUACGAACA | -0.166 ± 0.12 | -0.908 ± 0.1
CAGUAGCAAUAUUACGGCUG | -2.37 ± 0.34 | -3.85 ± 0.47
CACUAGCAAUAUUACGACAC | -1.69 ± 0.24 | -2.65 ± 0.22
AAAGAGCAAUAUUACGAGCU |  | -3.99 ± 0.6
UCGCAGCAAUAUUACGGGUC |  | -4.91 ± 0.59
CUCGAGCAAUAUUACGGCUU | -2.3 ± 1.1 | 
GACUAGCAAUAUUACGCUCG | -0.0622 ± 0.19 | -1.01 ± 0.14
UCGUAGCAAUAUUACGAACC |  | -3.17 ± 1
UCUGAGCAAUAUUACGGCCA | -2.08 ± 1.1 | -2.47 ± 0.78
AAGGAGCAAUAUUACGGUCA |  | -3.57 ± 0.74
AAUGAGCAAUAUUACGAGAG |  | -4.23 ± 0.75
UCGUAGCAAUAUUACGAGCC | -0.681 ± 1.4 | -2.44 ± 1.1
CACUAGCAAUAUUACGAUCG | 0.717 ± 0.071 | 0.531 ± 0.067
CCCAAGCAAUAUUACGCCCU | -4.22 ± 0.59 | 

Quoted from the listing:
AAAGAGCAAUAUUACGAGCU – self-splicing fitness (ln) (30 °C): -3.99 ± 0.6
GAUGAGCAAUAUUACGUCGG – self-splicing fitness (ln) (30 °C): -4.54 ± 0.51
CGCGAGCAAUAUUACGCUCG – self-splicing fitness (ln) (37 °C): -1.19 ± 0.73
UAAGAGCAAUAUUACGUUCC – self-splicing fitness (ln) (30 °C): -4.63 ± 1
CGCAAGCAAUAUUACGCUUG – self-splicing fitness (ln) (37 °C): -1.87 ± 0.21
GUAGAGCAAUAUUACGCCGC – self-splicing fitness (ln) (30 °C): -2.44 ± 1.1

2 entries from above, tab-delimited.
Sequence	self-splicing fitness (ln) (37 °C)	self-splicing fitness (ln) (30 °C)
CUGCAGCAAUAUUACGGCGU		-3.63 ± 0.52
UCCUAGCAAUAUUACGCGGC	-1.69 ± 0.81	

The list continues.

Sequence | self-splicing fitness (ln) (37 °C) | self-splicing fitness (ln) (30 °C)
UUUCAGCAAUAUUACGAGGC | -2.11 ± 0.51 | 
GUCUAGCAAUAUUACGCCUG |  | -3.76 ± 1
AUGGAGCAAUAUUACGAUCG | -1.1 ± 0.42 | -4.05 ± 0.6
CUGCAGCAAUAUUACGAAUC | -0.833 ± 0.5 | -4.09 ± 1
UCUUAGCAAUAUUACGGACG | -2.69 ± 0.54 | 
GCUCAGCAAUAUUACGCCGC | -2.3 ± 0.78 | 
GCUUAGCAAUAUUACGCCUC | -0.539 ± 0.56 | 0.274 ± 0.64
UCAUAGCAAUAUUACGCAUA |  | -2.64 ± 0.51
ACCCAGCAAUAUUACGCGCC | 0.136 ± 0.094 | -0.907 ± 0.064
CUACAGCAAUAUUACGUAAG | -0.424 ± 0.092 | -1.14 ± 0.068
CGUAAGCAAUAUUACGAGCC |  | -4.38 ± 0.59
AUCGAGCAAUAUUACGGAAA |  | -2.96 ± 0.54
UUGCAGCAAUAUUACGCCGC |  | -3.47 ± 1
GCCCAGCAAUAUUACGGCAG | -3.18 ± 0.53 | -3.12 ± 1.1
GUCUAGCAAUAUUACGGACU | -2.62 ± 0.63 | -3.7 ± 0.52
CUGGAGCAAUAUUACGGCCA |  | -3.79 ± 0.52
UUAUAGCAAUAUUACGUCUU | -0.948 ± 0.17 | -3.35 ± 0.3
ACUUAGCAAUAUUACGUCGC |  | -4.36 ± 0.59
GGAGAGCAAUAUUACGCACU | -1.94 ± 0.46 | -2.77 ± 0.49
GUACAGCAAUAUUACGCAGA |  | -3.95 ± 0.59
AAAGAGCAAUAUUACGUUGG | -2.4 ± 0.25 | -3.59 ± 0.22
